{"source": "PubChem BioAssay AID1508588 (Peter MacCallum Cancer Centre, 2020)", "aim": "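Knock-downs boosting vemurafenib effects on melanoma cell growth or lactate release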 (primary screen)", "cells": "human WM266.4 melanoma cells (BRAF V600 mutant)", "knock-down reagent": "siRNA pool against human genes, 40 nM", "timing": "96 h from transfection to read-out", "treatment": "vemurafenib 300 nM (about IC25), added 48 h after transfection, for 48 h; comparison arm got DMSO vehicle only", "read-out": "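Ratios to non-targeting siRNA for cell gain, counted as DAPI nuclei after minus before drug and averaged over two replicates, and for absorbance-read medium lactate per cell; both binned into fold-change classes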", "direction": "cell gain with vemurafenib: higher = more cell gain than with non-targeting siRNA; lactate per cell with vemurafenib: higher = more lactate made per cell", "rule for the call": "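a knock-down counts as enhancing when its fold-change classes with vehicle and with vemurafenib, taken together, show a stronger drug effect on cell gain or lactate per cell; exact class pairs not stated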", "meaning of the calls": "active = enhances vemurafenib effect; inactive = no enhancement seen", "note": "In all, the deposit lists about 18,000 reagents; this is an unselected part. Over the whole deposit, 790 (4.4%) were called active. 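Calls rest on a combination of fold-change classes in drug and vehicle arms, not all shown here.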 A number with no mark means an inactive call. Reagent sequences are not shown."}
{"Target gene": "TIMM10B (GeneID 26515)", "PubChem SID": "SID152150581", "cell gain with vemurafenib": 0.54, "lactate per cell with vemurafenib": 1.32}
{"Target gene": "ABCC5 (GeneID 10057)", "PubChem SID": "SID135621348", "cell gain with vemurafenib": 0.58, "lactate per cell with vemurafenib": 0.75}
{"Target gene": "MED16 (GeneID 10025)", "PubChem SID": "SID134310061", "cell gain with vemurafenib": 0.36, "lactate per cell with vemurafenib": 1.02}
{"Target gene": "NME9 (GeneID 347736)", "PubChem SID": "SID134311973", "cell gain with vemurafenib": 0.75, "lactate per cell with vemurafenib": 1.34}
{"Target gene": "DNAJC4 (GeneID 3338)", "PubChem SID": "SID135623903", "cell gain with vemurafenib": 0.52, "lactate per cell with vemurafenib": 1.12}
{"Target gene": "AASDH (GeneID 132949)", "PubChem SID": "SID152147123", "cell gain with vemurafenib": 0.76, "lactate per cell with vemurafenib": 0.98}
{"Target gene": "CRYGD (GeneID 1421)", "PubChem SID": "SID152154975", "cell gain with vemurafenib": 0.84, "lactate per cell with vemurafenib": 0.72}
{"Target gene": "PNMA8B (GeneID 57469)", "PubChem SID": "SID152151059", "cell gain with vemurafenib": 0.34, "lactate per cell with vemurafenib": 1.63}
{"Target gene": "ZNF384 (GeneID 171017)", "PubChem SID": "SID152150351", "cell gain with vemurafenib": 0.31, "lactate per cell with vemurafenib": 1.89}
{"Target gene": "TPH1 (GeneID 7166)", "PubChem SID": "SID134314758", "cell gain with vemurafenib": 1, "lactate per cell with vemurafenib": 0.57}
{"Target gene": "ASB6 (GeneID 140459)", "PubChem SID": "SID134317584", "cell gain with vemurafenib": 0.36, "lactate per cell with vemurafenib": 1.02}
{"Target gene": "KCNJ10 (GeneID 3766)", "PubChem SID": "SID152155436", "cell gain with vemurafenib": 0.66, "lactate per cell with vemurafenib": 0.9}
{"Target gene": "H4C5 (GeneID 8367)", "PubChem SID": "SID134315800", "cell gain with vemurafenib": 0.71, "lactate per cell with vemurafenib": 0.48}
{"Target gene": "OR1J4 (GeneID 26219)", "PubChem SID": "SID152156191", "cell gain with vemurafenib": 0.49, "lactate per cell with vemurafenib": 0.44}
{"Target gene": "MAGEA9B (GeneID 728269)", "PubChem SID": "SID135625582", "cell gain with vemurafenib": "0.95 (active)", "lactate per cell with vemurafenib": 0.44}
{"Target gene": "NFKBIE (GeneID 4794)", "PubChem SID": "SID152147035", "cell gain with vemurafenib": 0.78, "lactate per cell with vemurafenib": 1.02}
{"Target gene": "UQCC4 (GeneID 283951)", "PubChem SID": "SID135624933", "cell gain with vemurafenib": 0.91, "lactate per cell with vemurafenib": 0.66}
{"Target gene": "JPT2 (GeneID 90861)", "PubChem SID": "SID152152525", "cell gain with vemurafenib": 0.61, "lactate per cell with vemurafenib": 0.92}
{"Target gene": "CDH19 (GeneID 28513)", "PubChem SID": "SID134317342", "cell gain with vemurafenib": 0.44, "lactate per cell with vemurafenib": 0.67}
{"Target gene": "PARP11 (GeneID 57097)", "PubChem SID": "SID152151961", "cell gain with vemurafenib": 0.62, "lactate per cell with vemurafenib": 0.95}
{"Target gene": "AAGAB (GeneID 79719)", "PubChem SID": "SID152149744", "cell gain with vemurafenib": 0.56, "lactate per cell with vemurafenib": 0.42}
{"Target gene": "ZNF624 (GeneID 57547)", "PubChem SID": "SID134325590", "cell gain with vemurafenib": 0.8, "lactate per cell with vemurafenib": 0.94}
{"Target gene": "MAP9 (GeneID 79884)", "PubChem SID": "SID152156184", "cell gain with vemurafenib": 0.67, "lactate per cell with vemurafenib": 0.8}
{"Target gene": "MPLKIP (GeneID 136647)", "PubChem SID": "SID134320375", "cell gain with vemurafenib": 0.33, "lactate per cell with vemurafenib": 1.58}
{"Target gene": "DHX34 (GeneID 9704)", "PubChem SID": "SID152148893", "cell gain with vemurafenib": 1.06, "lactate per cell with vemurafenib": 0.66}
{"Target gene": "OR51F2 (GeneID 119694)", "PubChem SID": "SID152155339", "cell gain with vemurafenib": 1.01, "lactate per cell with vemurafenib": 0.46}
{"Target gene": "EIF2AK2 (GeneID 5610)", "PubChem SID": "SID56478676", "cell gain with vemurafenib": 0.7, "lactate per cell with vemurafenib": 0.46}

4 of these entries, set out differently:
AAGAB (GeneID 79719) [SID152149744] | cell gain with vemurafenib: 0.56; lactate per cell with vemurafenib: 0.42
ZNF624 (GeneID 57547) [SID134325590] | cell gain with vemurafenib: 0.8; lactate per cell with vemurafenib: 0.94
MAP9 (GeneID 79884) [SID152156184] | cell gain with vemurafenib: 0.67; lactate per cell with vemurafenib: 0.8
MPLKIP (GeneID 136647) [SID134320375] | cell gain with vemurafenib: 0.33; lactate per cell with vemurafenib: 1.58
